Measurements reported in PubChem BioAssay AID1259308 (NCATS, 2017)
Test: 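Genes whose loss raises luciferase production in HEK293 cells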 (primary screen). System: human HEK293 embryonic kidney cells stably expressing firefly luciferase (HEK-CMV-Luc2-Hygro). Knock-down reagent: single siRNA against human genes, 0.8 pmol siRNA per well. Duration: 72 h. Detection: 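Luciferase light (ONE-Glo) measured on one replicate plate set and viability (CellTiter-Glo) on the other, scaled to a negative control siRNA, with robust z-scores and luciferase per cell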. Direction: total luciferase, z-score: higher = more reporter protein produced. Active means: 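An siRNA counts as active if its total luciferase robust z-score exceeds 3; genes with two or more such siRNAs out of three were retested with fresh siRNAs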. Meaning of the calls: active = raised luciferase; inactive = no rise.
Shown is an unselected part of about 59,000 reagents. Over the whole deposit, about 1,510 (2.6%) got an active call. 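Calls use total luciferase alone and ignore viability, so some active siRNAs may act by altering cell number.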 Entries without a mark were called inactive. Reagents against one gene are numbered here. Further read-outs or replicates are left out here. Reagent sequences are not shown.

total luciferase, z-score, by target and reagent
IL20RA (interleukin 20 receptor subunit alpha): #1 0.727; #2 -0.812; #3 -1.57
METTL21A (methyltransferase 21A, HSPA lysine): #1 1.4; #2 -0.158; #3 0.282
C2 (complement C2): #1 0.677; #2 3.64 (active); #3 0.495
DGAT1 (diacylglycerol O-acyltransferase 1): #1 0.8; #2 0.261; #3 -0.235
ZNF485 (zinc finger protein 485): #1 1.93; #2 -0.422; #3 0.976
ORMDL1 (ORMDL sphingolipid biosynthesis regulator 1): #1 0.461; #2 0.553; #3 0.219
OTUD7B (OTU deubiquitinase 7B): #1 -1.85; #2 -0.396; #3 -2.15
PRCD (photoreceptor disc component): #1 0.722; #2 -1.06; #3 -0.697
BTN1A1 (butyrophilin subfamily 1 member A1): #1 -0.19; #2 -1.42; #3 0.355
ARAF (A-Raf proto-oncogene, serine/threonine kinase): #1 -0.514; #2 -1.32; #3 0.188
TRARG1 (trafficking regulator of GLUT4 (SLC2A4) 1 (gene/pseudogene)): #1 1.42; #2 1.25; #3 -0.672
CST3 (cystatin C): #1 0.228; #2 0.489; #3 0.22
CIMIP6 (ciliary microtubule inner protein 6): #1 1.59; #2 -0.423; #3 -1.79
KRT18P8 (keratin 18 pseudogene 8): #1 -0.278; #2 -0.32; #3 1.88
FATE1 (fetal and adult testis expressed 1): #1 4.2 (active); #2 -1.15; #3 -0.681
NPHS2 (NPHS2 stomatin family member, podocin): #1 0.215; #2 0.491; #3 0.218
CENPS (centromere protein S): #1 0.169; #2 -0.87; #3 -1.28
CARMIL3 (capping protein regulator and myosin 1 linker 3): #1 -0.395; #2 1.19; #3 -1.97
NTS (neurotensin): #1 -0.0343; #2 0.112; #3 0.36
PIM1 (Pim-1 proto-oncogene, serine/threonine kinase): #1 -0.123; #2 -1.42; #3 -0.889
SLC38A11: #1 -0.23; #2 2.44; #3 0.0515
SLC4A4: #1 0.819; #2 0.59; #3 1.58
HIP1 (huntingtin interacting protein 1): #1 0.443; #2 -0.459; #3 -0.626
ZBTB18 (zinc finger and BTB domain containing 18): #1 -0.0741; #2 -0.207; #3 -0.397
RXFP4 (relaxin family peptide/INSL5 receptor 4): #1 1.39; #2 0.338; #3 -1.36

Already shown: 10 of the entries above.
total luciferase, z-score, by target and reagent
KRT18P8 (keratin 18 pseudogene 8): #1 -0.278; #2 -0.32; #3 1.88
FATE1 (fetal and adult testis expressed 1): #1 4.2 (active); #2 -1.15; #3 -0.681
NPHS2 (NPHS2 stomatin family member, podocin): #1 0.215; #2 0.491; #3 0.218
CENPS (centromere protein S): #1 0.169
